One assay deals with SU-DHL-1 cells. Kind of assay: Effect on cell proliferation, cell cycle, apoptosis, cell death and STAT-3 expression in SU-DHL-1 cells (flow cytometry). The assay is classed as cell-based. Here is the method: I-103 was evaluated to determine its effect on viability, cell cycle, cell proliferation, apoptosis, and STAT-3 expression. SU-DHL-1 cells were cultured until sufficient cell numbers were obtained. Timepoints were staggered in order to harvest all cells simultaneously. On day 1, cells were seeded at 12,000 cells per well in five identical 96 well-plates. Test compounds at 5 μM, 0.5 μM, and 0.05 μM and controls were added to the wells designated for the 96-hour timepoint. Test compound addition was repeated on days 2-4 for the 72, 48, and 24-hour timepoints.
At day 5, the cells were evaluated for each of the five readouts listed above. Cell viability was determined by preferentially staining dead cells with 3 μM DAPI. Cell proliferation was measured by Ki-67 expression of fixed and permeabilized cells using the Foxp3/Transcription Factor Staining Buffer Set. Cell cycle analysis was performed with the PI/RNase Staining Solution on ethanol-fixed cells. Caspase-3 and PARP internal staining was used to determine the level of apoptosis. STAT-3 expression levels were determined with as described below, fixing cells with 1.6% PFA and permeabilizing with methanol in order to stain cells with a STAT-3 antibody. All plates were analyzed by flow cytometry.
Cell culture: SU-DHL-1 cells were cultured according to DSMZ recommendations for culture medium, passage frequency, and seeding density. Briefly, cells were seeded at 0.3×10^6 cells/mL and passaged every 2-3 days, not to exceed a cell density of 1.5×10^6/mL. SU-DHL-1 cells were cultured in RPMI 1640 medium supplemented with 10% FBS.
Co-culture cells and test compounds: SU-DHL-1 cells were harvested and the concentration was adjusted to 6.67×10^4 cells/mL. Cells were added to the wells according to the plate map below (FIG. 1). Each well received 180 μL of cells for a total of 12,000 cells/well, as determined by an optimal seeding density pilot performed prior to the initiation of this experiment.
A 20 mM DMSO stock solution of I-103 was prepared. I-103 was first prepared at 1000× in DMSO and then further diluted to 10× in RPMI supplemented with 10% HI-FBS. I-103 was added at a volume of 20 μL to the appropriate wells according to the plate maps. Controls were prepared as described in the table below (Table 85). Drug addition on days 2-4 followed the same protocol.
Evaluation of cells after culture with test compounds: At the conclusion of the 96-hour incubation, each plate was evaluated for one specific endpoint readout.
The viability plate was removed from the incubator, centrifuged and washed with 200 μL of DPBS. Cells were centrifuged and the supernatant was decanted. The cell pellet was resuspended in 120 μL of 3 μM DAPI solution. Cells were incubated for 10 minutes at room temperature, protected from light. After the incubation, cells were centrifuged again, decanted and resuspended in 120 μL of BD stain buffer and analyzed by flow cytometry to determine cell viability.
The PI/RNase plate was removed from the incubator, centrifuged and washed with 200 μL of DPBS. Cells were centrifuged and the supernatant was decanted. The cell pellet was resuspended in 60 μL of DPBS. Absolute ethanol was added at 140 μL per well and mixed well to fix cells. Cells were incubated for 10 minutes at 4° C. After the incubation, cells were centrifuged and washed twice with DPBS. […] Cells were analyzed by flow cytometry without washing. […]
Background: Flow cytometry measures light scatter and fluorescence of single cells or particles in a stream.

Sequences of proteins named here, by UniProt entry; tags and fusion partners are left off.
UniProt P40763, whole entry: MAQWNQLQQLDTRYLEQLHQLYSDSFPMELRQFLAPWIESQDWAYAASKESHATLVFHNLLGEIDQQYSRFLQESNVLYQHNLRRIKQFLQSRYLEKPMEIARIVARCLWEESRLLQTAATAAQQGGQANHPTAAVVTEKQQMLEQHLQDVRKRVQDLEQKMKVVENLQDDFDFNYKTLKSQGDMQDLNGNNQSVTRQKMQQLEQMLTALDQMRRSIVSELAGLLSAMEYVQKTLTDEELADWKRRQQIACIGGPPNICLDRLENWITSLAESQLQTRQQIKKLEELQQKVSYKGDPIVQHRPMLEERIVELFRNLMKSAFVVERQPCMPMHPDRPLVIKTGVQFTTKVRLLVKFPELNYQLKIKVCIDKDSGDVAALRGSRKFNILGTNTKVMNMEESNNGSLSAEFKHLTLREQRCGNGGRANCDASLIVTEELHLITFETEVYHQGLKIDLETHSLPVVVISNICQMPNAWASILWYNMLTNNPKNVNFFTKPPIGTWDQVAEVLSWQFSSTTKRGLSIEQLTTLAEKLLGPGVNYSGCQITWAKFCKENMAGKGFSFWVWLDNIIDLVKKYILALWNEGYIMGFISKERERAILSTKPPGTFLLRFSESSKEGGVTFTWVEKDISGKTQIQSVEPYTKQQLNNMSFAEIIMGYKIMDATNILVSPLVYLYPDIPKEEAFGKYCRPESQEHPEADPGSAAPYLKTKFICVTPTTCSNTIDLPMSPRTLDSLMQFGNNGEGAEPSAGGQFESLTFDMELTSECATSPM

A further assay concerns the target STAT3 (Homo sapiens, UniProt P40763). The assay can be described thus: STAT3 degradation (DC50) in multiple ALK+ALCL cell lines. Particulars: dose response curves, FIG. 14; tested form: diammonium. From the text: FIG. 14 depicts dose response curves and DC50 results showing I-174 and I-94 mediated degradation in multiple ALK+ALCL cell lines.

The match of structure and compound is tentative.

In the case of `Cn1c(=O)n(C2CCC(=O)NC2=O)c2ccc(CCCCCCC(=O)N3CC[C@H]4CC[C@@H](C(=O)N[C@@H](CCC(N)=O)C(=O)NC(c5ccccc5)c5ccccc5)N4C(=O)[C@@H](NC(=O)c4cc5cc(C(=O)P(=O)(O)O)ccc5[nH]4)C3)cc21` (stereo partly drawn), the “subG1 cells (PI/RNAse analysis, FACS)” value in the assay on SU-DHL-1 cells (SU-DHL-1, 48, 72, and 96 hours, FIG. 7D) is listed as “increase in subG1 cells”. The “STAT-3 expression (flow cytometry)” value with SU-DHL-1 cells (SU-DHL-1, 24 hours, FIG. 7A) was “decrease of STAT3 at 24 hours”. In the assay on SU-DHL-1 cells (SU-DHL-1, 48 hours), the apoptosis result is reported as “induces apoptosis at 48 hours that leads to cell death”. Besides, the “proliferation (Ki-67)” value with SU-DHL-1 cells (SU-DHL-1, FIG. 7B) is on record as “time-dependent inhibition of proliferation”. Besides, in the assay on SU-DHL-1 cells (SU-DHL-1, FIG. 7C), the “activated Caspase 3” value is given as “increase in activated Caspase 3”.

`Cc1ncsc1-c1ccc([C@H](C)NC(=O)[C@@H]2C[C@@H](O)CN2C(=O)[C@@H](NC(=O)CCCCc2ccc(CO[C@H](C)[C@H](CCC(N)=O)NC(=O)[C@@H]3Cc4cccc5c4N3C(=O)[C@@H](NC(=O)c3cc4cc(C(=O)P(=O)(O)O)ccc4[nH]3)CC5)cc2)C(C)(C)C)cc1` [Compound I-227]: the “degradation in multiple ALK+ALCL cell lines” value on STAT3 is listed as “mediated degradation”.

Values taken from patent publication US12077555B2, “STAT degraders and uses thereof” (Kymera Therapeutics, Inc., priority 2019, dated 2024).
